Measurements as given in publication PMC5996148.
Some of the results follow. For some of these results: The source does not settle which construct or isoform was used.

What was measured:
Experiment in all cases: protein microarray (ProtoArray v5.0), streptavidin-Alexa Fluor 647
Details in all cases: 3'-biotin; 20 mM Tris (pH 7.5), 5 mM MgCl2, 100 mM KCl, 0.1% Tween-20, A/T-rich and random oligonucleotide blockers; temperature not stated; high values mean tight binding
INVS (human) = tested on: INVS (human)
[1] = tested on: IQ and ubiquitin-like domain-containing protein (human)
IRAK3 (human) = tested on: IRAK3 (human)
IREB2 (human) = tested on: IREB2 (human)
IRF1 (human) = tested on: IRF1 (human)
IRF3 (human) = tested on: IRF3 (human)
IRF4 = biological target: T1, IRF4 (UniProt Q15306)
T1 sequence: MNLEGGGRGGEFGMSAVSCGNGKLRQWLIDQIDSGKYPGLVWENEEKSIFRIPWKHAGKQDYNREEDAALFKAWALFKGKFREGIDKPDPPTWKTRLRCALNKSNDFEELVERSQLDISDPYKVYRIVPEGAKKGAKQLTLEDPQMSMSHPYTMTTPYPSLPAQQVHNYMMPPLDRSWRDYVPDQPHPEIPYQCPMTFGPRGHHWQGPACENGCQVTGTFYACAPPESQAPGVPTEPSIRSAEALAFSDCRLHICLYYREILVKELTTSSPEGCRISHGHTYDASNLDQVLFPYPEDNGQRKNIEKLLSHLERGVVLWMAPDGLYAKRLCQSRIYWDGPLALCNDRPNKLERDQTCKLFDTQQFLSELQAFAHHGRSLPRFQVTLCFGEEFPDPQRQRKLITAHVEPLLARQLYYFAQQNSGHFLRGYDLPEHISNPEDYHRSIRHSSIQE

IRF5 (human) = tested on: IRF5 (human)
IRF6 (human) = tested on: IRF6 (human)
ISG15 (human) = tested on: ISG15 (human)

Sequence: GGGAGGCTGAGGCAGG [G4-1 biotinylated (PQS2)]
- binding signal (INVS (human)): -0.355 z-score
- binding signal [1]: -0.304 z-score
- binding signal (IRAK3 (human)): -0.322 z-score
- binding signal (IREB2 (human)): -0.298 z-score
- binding signal (IRF1 (human)): -0.279 z-score
- binding signal (IRF3 (human)): -0.307 z-score
- binding signal (IRF4): -0.316 z-score
- binding signal (IRF5 (human)): -0.337 z-score
- binding signal (IRF6 (human)): -0.347 z-score
- binding signal (ISG15 (human)): -0.301 z-score
